Results taken from patent publication US20260248972A1 (priority 2022, published 2026).

Test: general procedure: Fmoc solid-phase peptide synthesis; Wang resin (loading 1.1 mmol/g) for C-terminal acid peptides; Rink Amide-MBHA; DIC/DMAP (first residue loading)
Conditions: whole synthesis, 214 nm, scale of the general procedure 5.0 mmol

Row | Substance | final HPLC purity [%] | final HPLC purity (one disulfide bridge) [%]
1 | (Z360)-E-gE-OEG-gE-K(DOTA)-OEG-f[CYwKTC]T-OH | 97.4 | 
2 | (Z360)-gE-gE-OEG-K(DOTAGA)-OEG-f[CYwKTC]T-OH | 87.1 | 
3 | (Z360)-gE-gE-OEG-OEG-K(DOTAGA)-OEG-OEG-f[CYwKTC]T-OH | 87.5 | 
4 | Ac-Tyr-Gly-e-e-e-e-e-e-AYGW-NIe-DF-NH2 | 94.6 | 
5 | DO TA-e-e-e-e-e-e-AYGW-Nle-DF-NH2 | 95.5 | 
6 | DOT A-K(-OEG-OEG-Glu-Z360)-OEG-f[CYwKTC]T-OH |  | 100
7 | DOTA-Aoc-K(Z360)-f[CYwKTC]T-OH |  | 96.5
8 | DOTA-G-G-K(Z360)-f[CYwKTC]T-OH | 98.8 | 
9 | DOTA-G-S-K(Z360)-G-S-f[CYwKTC]T-OH | 95.6 | 
10 | DOTA-K(-Glu-Z360)-Ahx-f[CYwKTC]T-OH |  | 96
11 | DOTA-K(-OEG-HGlu-Dap7Z360)-OEG-f[CYwKTC]T-OH |  | 100
12 | DOTA-K(-OEG-His-Glu-Z360)-OEG-f[CYwKTC]T-OH |  | 100
13 | DOTA-K(-OEG-OEG-Cbp-Z360)-OEG-f[CYwKTC]T-OH |  | 98
14 | DOTA-K(-OEG-gGlu-Ser-Z360)-OEG-f[CYwKTC]T-OH |  | 100
15 | DOTA-K(Z360)-G-S-G-f[CYwKTC]T-OH | 98.9 | 
16 | DOTA-K(Z360)-Glu-gGlu-OEG-OEG-f[CYwKTC]T-OH |  | 100
17 | DOTA-K(Z360)-gGlu-OEG-OEG-f[CYwKTC]T-OH |  | 100
18 | DOTA-e-e-e-e-e-e-Ala-Tyr-Gly-Trp-Nle-Asp-Phe-NH2 | 95 | 
19 | DOTA-gE-gE-gE-OEG-Lys(-gE-G-Z360)-OEG-f[CYwKTC]T-OH |  | >99.0
20 | DOTAGA-K(-Glu-Z360)-Ahx-Ahx-f[CYwKTC]T-OH |  | 100
21 | DOTAGA-K(-Glu-Z360)-Ahx-f[CYwKTC]T-OH |  | 94
22 | DOTAGA-K(-Glu-Z360)-Aoc-Aoc-f[CYwKTC]T-OH |  | 100
23 | DOTAGA-K(-Glu-Z360)-OEG-f[CYwKTC]T-OH |  | 96
24 | DOTAGA-K(-Glu-Z360)-f[CYwKTC]T-OH |  | 97
